# Assay results taken from paper PMC5744130.
# The chains behind the UniProt entries cited, without tags or fusion partners.
# UniProt Q8TEW0: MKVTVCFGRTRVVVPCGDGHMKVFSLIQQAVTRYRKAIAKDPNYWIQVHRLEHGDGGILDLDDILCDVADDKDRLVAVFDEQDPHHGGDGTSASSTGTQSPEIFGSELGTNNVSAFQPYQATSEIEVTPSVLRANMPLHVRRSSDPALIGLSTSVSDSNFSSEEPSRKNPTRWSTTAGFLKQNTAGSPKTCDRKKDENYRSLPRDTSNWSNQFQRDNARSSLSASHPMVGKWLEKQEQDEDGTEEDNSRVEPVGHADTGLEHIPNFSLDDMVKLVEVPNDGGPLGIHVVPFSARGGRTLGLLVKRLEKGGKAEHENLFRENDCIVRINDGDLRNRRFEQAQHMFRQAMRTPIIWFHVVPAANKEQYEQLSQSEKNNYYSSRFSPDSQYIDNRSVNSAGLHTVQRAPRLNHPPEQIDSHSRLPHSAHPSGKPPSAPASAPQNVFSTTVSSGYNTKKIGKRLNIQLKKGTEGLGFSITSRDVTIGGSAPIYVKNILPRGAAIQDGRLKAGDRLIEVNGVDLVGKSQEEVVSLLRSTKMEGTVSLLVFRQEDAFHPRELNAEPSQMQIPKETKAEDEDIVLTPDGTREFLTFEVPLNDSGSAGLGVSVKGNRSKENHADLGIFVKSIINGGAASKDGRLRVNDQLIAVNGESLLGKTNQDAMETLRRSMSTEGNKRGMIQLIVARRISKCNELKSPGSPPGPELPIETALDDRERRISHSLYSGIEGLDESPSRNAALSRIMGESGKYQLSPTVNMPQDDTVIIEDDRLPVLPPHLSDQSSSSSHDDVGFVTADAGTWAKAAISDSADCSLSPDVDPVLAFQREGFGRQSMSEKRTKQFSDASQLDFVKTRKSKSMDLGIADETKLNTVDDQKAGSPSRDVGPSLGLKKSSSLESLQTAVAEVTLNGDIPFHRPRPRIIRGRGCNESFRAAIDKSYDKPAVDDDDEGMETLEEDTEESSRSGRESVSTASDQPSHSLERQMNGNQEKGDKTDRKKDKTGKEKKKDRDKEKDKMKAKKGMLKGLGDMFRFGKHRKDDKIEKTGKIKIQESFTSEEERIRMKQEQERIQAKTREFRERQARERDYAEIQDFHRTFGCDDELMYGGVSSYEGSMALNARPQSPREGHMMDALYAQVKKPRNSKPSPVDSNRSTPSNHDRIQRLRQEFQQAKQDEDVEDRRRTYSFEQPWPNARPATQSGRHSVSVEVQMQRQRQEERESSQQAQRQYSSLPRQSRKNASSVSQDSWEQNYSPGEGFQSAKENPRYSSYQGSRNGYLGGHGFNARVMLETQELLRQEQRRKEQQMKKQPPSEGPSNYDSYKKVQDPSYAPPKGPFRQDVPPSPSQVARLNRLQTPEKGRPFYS
# Results are given in words; binding and its absence hold for the method and conditions named. Binding seen in cells or lysates may run through a third protein.
# What was measured:
# [1] = target: HTLV-1 Tax protein (construct of the pull-down and co-immunoprecipitation not stated) (HTLV-1) (UniProt P03409); experiment: co-IP; co-immunoprecipitation in HEK293 cells, data not shown
# [2] = target: HTLV-1 Tax protein (construct of the pull-down and co-immunoprecipitation not stated) (HTLV-1) (UniProt P03409); experiment: pull-down; GST pull-down, data not shown; which protein carried GST not stated
substance,measurement,setting,value
Partitioning defective 3 (PAR3) (construct of the pull-down and co-immunoprecipitation not stated) (from UniProt Q8TEW0 1-1356),binding,[1],no binding
same,binding,[2],no binding
